Measurements reported in PubChem BioAssay AID504467 (National Center for Advancing Translational Sciences (NCATS), 2011).
Screen size: about 330,000 compounds; about 7,700 (2.3%) were called active. The inconclusive results got no clear call from the source; some entries with a clear call stand among them for comparison. The call rests on the fitted dose curve; in most records, active means well fitted inhibition curve with a large enough effect; inconclusive means small, poorly fitted or top-dose-only effect, or effect the other way; inactive means flat fitted curve, though single readings scatter. Where the call is inconclusive, the potency comes from a doubtful curve fit.
On the % scale 0 is the no-effect control and ±100 the full control effect; potency means the concentration at half of the fitted maximal effect.

Assay: qHTS screen for small molecules that inhibit ELG1-dependent DNA repair in human embryonic kidney (HEK293T) cells expressing luciferase-tagged ELG1; further: nearly all actives have a fitted effect of over 55% in size
Settings: HEK293T ELG1-luciferase reporter, luminescence, 16 h, DNA damage induced by 5-fluorouridine; activity change, negative = inhibition: at 46.1 µM (top of the series)
Procedure, shortened: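 Step one: seed 2,000 cells per well. Step two: pin-transfer compound or DMSO alongside 5-fluorouridine. Step three: incubate 16 hr, 37 °C, 5% CO2. Step four: add ONE-Glo, wait 30 min, read luminescence.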
With `CCn1c(C2CCN(Cc3ccccc3)CC2)n[nH]c1=S` the “activity change, negative = inhibition” value was inactive: 0.261%. For `CC(C)(C)c1nnc(NC(=S)Nc2ccccc2)s1`, the Potency was inconclusive: 6.51 µM [activator, partial curve]. For `CCN(CC)CCNC(=O)CSc1c2c(nc3cc(Cl)ccc13)CCCC2`, the Potency was inconclusive: 29.1 µM [activator, single point]. In the case of `COc1ccc(NC(=S)NCc2ccco2)cc1`, the Potency is reported as inconclusive: 18.4 µM [activator, single point]. For `Cc1ccc(CN2CCSc3ccc(C(=O)N4CCN(c5ncccn5)CC4)cc32)cc1`, the Potency was inconclusive: 29.1 µM [inhibitor, single point]. With `CCOC(=O)c1cnc2ccc(C)cc2c1N(C)Cc1ccccc1` the Potency was inconclusive: 18.3 µM [inhibitor, partial curve, poor fit]. With `Clc1ccc(-c2nnc(CSc3nnc(-c4cccs4)o3)o2)cc1` the Potency was inconclusive: 29.1 µM [activator, single point]. For `CCOc1ccc(N2CC(C(=O)N3CCc4ccccc4C3)CC2=O)cc1` (stereo not given), the “activity change, negative = inhibition” value was inactive: 7.42%. For `C[C@@H]1CN([C@H](C)CO)C(=O)c2cc(NC(=O)Cc3cn(C)c4ccccc34)ccc2O[C@H]1CN(C)C(=O)Nc1ccc2c(c1)OCO2`, the Potency was inconclusive: 1.16 µM [activator, single point]. For `OC(COCc1ccccc1)CN1CCCCC1` (stereo not given), the Potency was inconclusive: 18.3 µM [activator, partial curve, poor fit]. In the case of `COC(=O)CNC(c1ccccc1)c1cc(Br)ccc1NC(=O)CNC(=O)OCc1ccccc1` (stereo not given), the Potency is reported as inconclusive: 20.6 µM [inhibitor, single point]. In the case of `Cc1cccc(N2CCN(C(c3ccccc3)c3nnnn3C(C)(C)C)CC2)c1C` (stereo not given), the Potency is reported as inconclusive: 8.2 µM [inhibitor, partial curve, poor fit]. In the case of `CC(=O)c1sc(NCc2ccccc2)nc1C`, the Potency is reported as inconclusive: 20.6 µM [activator, single point]. In the case of `O=C(NN=C1CCCCCC1)NC1CCCCC1`, the Potency is reported as inconclusive: 29.1 µM [activator, partial curve, poor fit]. In the case of `COc1ccc(CN(C(=O)/C=C/C(=O)c2ccc(OC)cc2O)C(C(=O)NC2CCCCC2)c2ccncc2)cc1` (stereo not given), the Potency is reported as active: 16.4 µM. In the case of `S=c1[nH]c2ccc(Cc3ccc4[nH]c(=S)[nH]c4c3)cc2[nH]1`, the Potency is reported as inconclusive: 16.4 µM [inhibitor, single point]. For `Cc1ccc(C(=O)C(C)Oc2cccc(NC(=O)c3ccco3)c2)cc1` (stereo not given), the Potency was inconclusive: 29.1 µM [inhibitor, single point]. In the case of `CCCC(=O)Nc1ccc2c(c1)nc(CN1CCN(C(=O)OCC)CC1)n2CC`, the Potency is reported as inconclusive: 6.51 µM [inhibitor, single point]. In the case of `CCN1CCN(c2ccc(S(=O)(=O)N3CCOCC3)cc2NC(=O)COc2ccc(F)cc2Cl)CC1`, the “activity change, negative = inhibition” value is reported as inactive: -40.3%. For `CCN(Cc1ccccc1)C(=O)C(=O)c1cn(CC(=O)N2CCCC2)c2ccccc12`, the Potency was inconclusive: 0.058 µM [inhibitor, partial curve, poor fit]. With `O=C(/C=C/Nc1ccc(Nc2ccccc2)cc1)c1cccs1` the Potency was inconclusive: 7.3 µM [activator, partial curve]. With `Cc1ccc(S(=O)(=O)Cc2cc(F)c([N+](=O)[O-])cc2[N+](=O)[O-])cc1` the Potency was active: 16.4 µM. With `O=C(OCC(=O)N1CCCC1)c1cccs1` the Potency was inconclusive: 18.4 µM [activator, single point]. In the case of `CNc1ccccc1C(=O)OC(C)C(=O)Nc1ccc(Cl)cn1` (stereo not given), the Potency is reported as inconclusive: 29.1 µM [inhibitor, single point]. With `CC(C)[C@H]1C(=O)Nc2ccccc2N1C(=O)N[C@@H](Cc1ccccc1)C(=O)N[C@H](C(=O)O)c1ccccc1` the Potency was inconclusive: 0.058 µM [inhibitor, full curve]. For `CC(=O)c1cc(-c2ccc(F)cc2)n(CCC(=O)Nc2cccnc2)c1C`, the “activity change, negative = inhibition” value was inactive: 6.25%. For `Cc1cc(C)c2sc(N(CCCN(C)C)C(=O)c3ccc(S(=O)(=O)N(C)C4CCCCC4)cc3)nc2c1`, the Potency was inconclusive: 23.1 µM [inhibitor, single point]. With `COc1ccc(OC)c(NC(=O)C2CCC(CNc3c(N4CCC(C)CC4)c(=O)c3=O)CC2)c1` (stereo not given) the Potency was inconclusive: 0.411 µM [inhibitor, full curve, poor fit]. In the case of `COc1ccccc1NS(=O)(=O)c1ccc(Cl)c(NC(=S)NC(=O)C2CCCC2)c1`, the Potency is reported as inconclusive: 16.4 µM [inhibitor, single point]. In the case of `COc1ccc(-n2ccn(CC(=O)Nc3ccc(OC)cc3OC)c(=O)c2=O)cc1`, the “activity change, negative = inhibition” value is reported as inactive: 0.934%. With `Cc1ccc(-c2nnc(SCC(=O)N/N=C/c3ccc(C)s3)n2-c2ccc(C)cc2)cc1` the Potency was inconclusive: 23.1 µM [inhibitor, single point]. In the case of `CCOc1ccc(NC(=O)CSc2nnc(-c3ccccc3Cl)n2Cc2ccco2)cc1`, the Potency is reported as inconclusive: 18.4 µM [inhibitor, single point]. With `CCC(OC(=O)CCc1nc2ccccc2[nH]c1=O)C(=O)c1ccccc1` (stereo not given) the Potency was inconclusive: 29.1 µM [inhibitor, single point]. With `Cc1[nH]n(-c2cccc(Cl)c2)c(=O)c1C=NCc1ccco1` the Potency was inconclusive: 4.11 µM [activator, partial curve]. For `CC1CCC(NC(=O)c2nc(Cn3ccc([N+](=O)[O-])n3)no2)CC1` (stereo not given), the “activity change, negative = inhibition” value was inactive: -14%. For `Cc1nc2c(sc3nc4c(cc32)COC(C)(C)C4)c(=O)n1CC(=O)NCc1ccco1`, the Potency was inconclusive: 23.1 µM [activator, partial curve]. For `CC(Sc1nnc2c(n1)[nH]c1ccccc12)C(=O)N(C)C1CCCCC1` (stereo not given), the Potency was inconclusive: 29.1 µM [inhibitor, single point]. In the case of `O=C(/C=C/c1ccc(Cl)cc1)Nc1ccc(CN2CCOCC2)cc1`, the Potency is reported as inconclusive: 0.651 µM [inhibitor, full curve, poor fit]. In the case of `COC(=O)c1cccc(Nc2nc(-c3ccncc3)nc3ccccc23)c1`, the Potency is reported as inconclusive: 4.11 µM [inhibitor, full curve]. In the case of `COc1ccc(/C=C(/C(=O)Nc2ccccc2C(=O)NC(C)C)c2ccccc2)cc1`, the Potency is reported as inconclusive: 29.1 µM [inhibitor, single point].
